From PubChem BioAssay AID1347075 (National Center for Advancing Translational Sciences (NCATS), 2019)
Among all 400,000 compounds or so, about 5,500 (1.4%) were called active. The inconclusive results got no clear call from the source; some entries with a clear call stand among them for comparison. The call rests on the fitted dose curve; in most records, active means well fitted cell-killing curve with a large enough effect; inconclusive means small, poorly fitted or top-dose-only effect, or effect the other way; inactive means flat fitted curve, though single readings scatter. Potencies beside an inconclusive call are fits to weak or partial responses and may not hold up.

assay: qHTS assay for MDR1-selective chemotherapeutics: Primary screen using the parental adenocarcinoma cell KB-3-1; conditions: KB-3-1 viability, CellTiter-Glo ATP luminescence, 72 h; activity change, negative = cytotoxic: at 46.1 µM (top of the series); further: nearly all actives have a fitted effect of over 60% in size
How it was run: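 Parental KB-3-1 adenocarcinoma cells in phenol-red-free DMEM with 10% FBS were pin-treated with compounds at several concentrations, incubated 72 h at 37 °C, and viability read by CellTiter-Glo luminescence; concentration-effect curves were fitted after normalization.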
On the % scale 0 is the no-effect control and ±100 the full control effect; potency means the concentration at half of the fitted maximal effect.

Compound	Potency	activity change, negative = cytotoxic
CCN1C(=O)[C@H]2[C@H]3CN=C(SCc4ccc(Cl)cc4)N3[C@@](Cc3ccccc3)(C(=O)OC)[C@H]2C1=O	inconclusive: 29.1 µM [cytotoxic, single point]	
Cc1ccc(C(=O)NNC(=O)CSc2nnc3c(n2)[nH]c2ccc(F)cc23)cc1	inconclusive: 29.1 µM [cytotoxic, single point]	
COc1cccc(CNC(=O)c2c(C)nn(-c3cccc(C)c3)c2-n2cccc2)c1	inconclusive: 29.1 µM [cytotoxic, single point]	
COc1ccc(-c2sc3cc4c(cc3c2C#CC2(N)CCCCC2)OCO4)cc1	inconclusive: 18.4 µM [cytotoxic, single point]	
CCCNC(=O)Cn1nc(C(F)(F)F)cc1C	inactive	
N#Cc1ccc(N/N=C/c2ccccc2)c([N+](=O)[O-])c1	inconclusive: 7.31 µM [cytotoxic, partial curve]	
Cc1cccc(C)c1OCC(=O)NNC(=O)CCNC(=O)c1ccco1	inconclusive: 29.1 µM [rising, single point]	
COc1cc2nc(CN(C)Cc3ccc(Cl)cc3)[nH]c(=O)c2cc1OC	inconclusive: 29.1 µM [cytotoxic, single point]	
Cc1ccc(OCC(=O)Nc2ccc(O)c(-c3nc4cc(C)c(C)cc4o3)c2)cc1	inconclusive: 18.4 µM [rising, single point]	
COc1ccc2nc3c(cc2c1)c(NC(=O)c1cccs1)nn3CC(C)C	inconclusive: 29.1 µM [cytotoxic, single point]	
CCOc1ccc(CN2CCN(C(=O)c3cccc(F)c3)CC2)cc1	inconclusive: 20.6 µM [cytotoxic, single point]	
Cc1ccc2cc(CN(c3ccccc3C)S(=O)(=O)c3ccccc3)c(=O)[nH]c2c1	inconclusive: 18.4 µM [cytotoxic, single point]	
CCOC(=O)CCC(=O)Nc1ncnc2c1C(c1ccccc1)c1c(ccc3ccccc13)O2 (stereo not drawn)	inconclusive: 29.1 µM [cytotoxic, single point]	
Cn1cc([N+](=O)[O-])c(C(=O)Nc2nc(-c3ccc(Cl)cc3)cs2)n1	active: 6.51 µM	
CCCOc1ccc(N2C(=O)CC(N(Cc3ccc(OC)cc3)C(=S)Nc3ccccc3)C2=O)cc1 (stereo not drawn)	inconclusive: 18.4 µM [cytotoxic, single point]	
COc1ccc(CCC(=O)N2CCN(c3ccc([N+](=O)[O-])cc3)CC2)cc1OC	inconclusive: 16.4 µM [cytotoxic, single point]	
Cc1nnc(NC(=O)c2oc3ccccc3c2C)s1	inactive	
Cc1ccc(NC(=O)c2ccc(N/N=C/c3cccc(O)c3)c([N+](=O)[O-])c2)cc1	inconclusive: 29.1 µM [cytotoxic, single point]	
c1ccc(-c2cn3c(n2)CCc2ccc4cccnc4c2-3)cc1	inconclusive: 29.1 µM [cytotoxic, single point]	

Single entries from the list:
For Potency, CCCOc1ccc(N2C(=O)CC(N(Cc3ccc(OC)cc3)C(=S)Nc3ccccc3)C2=O)cc1 (stereo not drawn) is entered as inconclusive: 18.4 µM [cytotoxic, single point]
For Potency, Cc1ccc2cc(CN(c3ccccc3C)S(=O)(=O)c3ccccc3)c(=O)[nH]c2c1 is entered as inconclusive: 18.4 µM [cytotoxic, single point]

(further entries)

Compound	Potency	activity change, negative = cytotoxic
COC(=O)CCC(=O)Nc1c(C)n(C)n(-c2ccccc2)c1=O	inconclusive: 29.1 µM [cytotoxic, single point]	
C=CCN=c1scc(-c2ccco2)n1/N=C/c1ccc(O)c(O)c1O	inconclusive: 20.6 µM [cytotoxic, single point]	
CCOC(=O)c1c(NC(=O)CSc2c[nH]c3ccccc23)sc2c1CCCC2	inconclusive: 20.6 µM [cytotoxic, single point]	
O=[N+]([O-])c1ccc(O)c(/C=N/Nc2ncnc3c2cnn3-c2ccccc2)c1	inconclusive: 2.59 µM [cytotoxic, full curve]	
O=C1N(Cc2cccc(Cl)c2)C[C@@H]2C[C@@H](c3cccc4cccnc34)N3CCC[C@@]123	inconclusive: 29.1 µM [cytotoxic, single point]	
CCN(CC)C(=O)C1=C(C)N(Cc2ccc(C(C)(C)C)cc2)C(=O)C(CC(=O)NC(c2ccccc2)c2ccccc2)C1 (stereo not drawn)	inconclusive: 29.1 µM [cytotoxic, single point]	
O=C(CCNS(=O)(=O)c1cccc2nonc12)N1CCN(c2cccc(Cl)c2)CC1	inactive	
CC[C@@]12C(=O)N(c3ccc(C)cc3)C(=O)N1[C@H](c1ccc(Br)cc1)[C@@H]1C(=O)N(C(C)(C)C)C(=O)[C@@H]12	inconclusive: 29.1 µM [cytotoxic, single point]	
Cc1ccc(-c2nnn(CC(=O)N(c3ccc(F)cc3)C(C(=O)NC3CCCC3)c3ccco3)n2)o1 (stereo not drawn)	inactive	
O=c1[nH]c(=O)n(Cc2ccccc2)c2c1C(C(F)(F)F)(C(F)(F)F)N=C(c1ccco1)N2	inconclusive: 29.1 µM [cytotoxic, single point]	
COc1ccccc1N(CC(=O)N/N=C(\C)c1cccc(Br)c1)S(C)(=O)=O	inactive	
O=C(Nc1ccc2[nH]c(=S)sc2c1)c1ccccc1		inconclusive: 16.3%
COc1ccc(-c2nc(C)c(CCNC(=O)C(=O)Nc3cccc(F)c3)s2)cc1OC	inconclusive: 29.1 µM [cytotoxic, single point]	
Cc1cc(-c2ccccc2)n(-c2ccc(C(=O)N3CCN(c4ncccn4)CC3)cc2)n1	inconclusive: 29.1 µM [cytotoxic, single point]	
COc1ccc(CCNC(=O)c2nn(-c3ccc(C)cc3)c(=O)c3c2c2ccccc2n3C)cc1OC	inactive	
CSc1ccc(CN2CCC(n3nccc3NC(=O)CCCc3ccccc3)CC2)cc1	inconclusive: 2.59 µM [cytotoxic, partial curve, poor fit]	
O=C(Nc1cccc(Cl)c1)c1ccc2c(=O)n3c(nc2c1)CCCCC3	inconclusive: 18.4 µM [cytotoxic, single point]	
Cc1cc2c(cc1C)N[C@]1(C[C@H]3CCCC(=O)N4CC[C@@H](C1)[C@@H]34)C(=NC(C)(C)CC(C)(C)C)N2	inconclusive: 29.1 µM [cytotoxic, single point]	
COc1cccc(/C=c2\s/c(=C\C(=O)C(C)(C)C)[nH]c2=O)c1	inconclusive: 20.6 µM [cytotoxic, single point]	
